For experiment [1], the target named is T1, recombinant GST-DOK3 fusion protein (human) (UniProt Q7L591).
T1 sequence: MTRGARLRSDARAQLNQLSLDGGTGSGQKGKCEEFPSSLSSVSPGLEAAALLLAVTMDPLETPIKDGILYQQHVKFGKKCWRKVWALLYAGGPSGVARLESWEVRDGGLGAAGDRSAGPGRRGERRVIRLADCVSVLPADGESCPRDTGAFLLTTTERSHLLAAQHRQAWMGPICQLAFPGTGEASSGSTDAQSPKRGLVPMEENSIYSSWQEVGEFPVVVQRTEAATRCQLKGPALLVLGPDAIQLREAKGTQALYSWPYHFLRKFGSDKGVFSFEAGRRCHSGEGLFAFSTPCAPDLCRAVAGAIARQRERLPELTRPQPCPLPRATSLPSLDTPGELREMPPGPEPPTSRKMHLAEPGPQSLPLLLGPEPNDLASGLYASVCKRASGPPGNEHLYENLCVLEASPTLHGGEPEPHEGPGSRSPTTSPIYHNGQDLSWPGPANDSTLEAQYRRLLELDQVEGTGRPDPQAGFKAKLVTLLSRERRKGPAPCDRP
Briefly: pull-down; recombinant GST or GST-DOK3 on glutathione-agarose beads incubated with microglial cell lysates (~1 mg; cells stimulated by LPS 1 μM) at 4° C for 2 h, washed 3 times with RIPA buffer, immunoblot for GPR84; only the target purified. (Immunoblotting shows a protein as a band on a membrane.)

Sequences of proteins named here, by UniProt entry; tags and fusion partners are left off.
UniProt Q8CIM5: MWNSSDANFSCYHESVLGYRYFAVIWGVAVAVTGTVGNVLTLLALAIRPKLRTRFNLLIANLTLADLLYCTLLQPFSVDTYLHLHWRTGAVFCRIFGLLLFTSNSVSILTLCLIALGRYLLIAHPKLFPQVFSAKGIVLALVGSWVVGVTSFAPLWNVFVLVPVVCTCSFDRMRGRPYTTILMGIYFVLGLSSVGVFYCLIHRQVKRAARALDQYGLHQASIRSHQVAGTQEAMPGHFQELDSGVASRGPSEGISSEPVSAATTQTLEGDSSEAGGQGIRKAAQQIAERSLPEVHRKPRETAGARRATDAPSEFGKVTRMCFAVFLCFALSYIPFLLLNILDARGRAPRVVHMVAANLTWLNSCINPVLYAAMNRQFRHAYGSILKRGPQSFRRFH

For experiment [2], the target named is T2, Adaptor molecule downstream of kinase-3 (DOK3), endogenous in BV2 microglia (mouse (endogenous in BV2)) (UniProt Q9QZK7).
T2 sequence: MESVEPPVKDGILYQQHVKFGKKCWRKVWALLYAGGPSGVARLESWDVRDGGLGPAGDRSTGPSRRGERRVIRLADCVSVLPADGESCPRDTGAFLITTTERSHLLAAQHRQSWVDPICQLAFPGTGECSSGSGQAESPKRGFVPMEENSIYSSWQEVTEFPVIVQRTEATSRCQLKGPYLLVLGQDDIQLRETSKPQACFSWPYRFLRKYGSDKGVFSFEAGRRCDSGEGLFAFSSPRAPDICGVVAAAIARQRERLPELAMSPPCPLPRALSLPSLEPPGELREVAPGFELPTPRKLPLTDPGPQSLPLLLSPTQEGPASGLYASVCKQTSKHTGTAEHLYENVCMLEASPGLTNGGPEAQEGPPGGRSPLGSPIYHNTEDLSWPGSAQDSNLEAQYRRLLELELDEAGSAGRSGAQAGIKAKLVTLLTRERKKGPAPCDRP
Put plainly: co-IP; precleared BV2 microglia lysates (RIPA buffer), cells untreated or stimulated with LPS (1 μM) for 4 h; immunoprecipitation with anti-DOK3 antibody and protein A or G agarose, immunoblot with anti-GPR84 antibody.

Results are given in words; binding and its absence hold for the method and conditions named. In cells and extracts the contact can be indirect. Some entries that bind do so weakly or less than the wild type. For some assays here: Where a sequence is shown, tags or fusion partners need not be part of it.

Turning to “G-protein-coupled receptor 84 (GPR84), endogenous in BV2 microglia (from UniProt Q8CIM5 1-396)”, the binding entry in experiment [1] and in experiment [2] was “binds” in each case.

The record behind these values is publication PMC7835011.
